Assay results reported in PMC3765826.
Results are given in words; binding and its absence hold for the method and conditions named. A result given as binding can be weak or reduced; the word gives no strength. For part of these data: Binding seen in cells or lysates may run through a third protein. For part of these data: Tags and fused reporters may be left off the sequences shown.

Assays:
[1] = biological target: T1, OsMPK3 (rice (Oryza sativa)) (UniProt Q10N20); experiment: two-hybrid; one to one, pGADT7 and pGBKT7 constructs co-transformed in yeast AH109; selected on DDO, interaction checked by growth on QDO (SD-trp-leu-ade-his) at 30°C
T1 sequence: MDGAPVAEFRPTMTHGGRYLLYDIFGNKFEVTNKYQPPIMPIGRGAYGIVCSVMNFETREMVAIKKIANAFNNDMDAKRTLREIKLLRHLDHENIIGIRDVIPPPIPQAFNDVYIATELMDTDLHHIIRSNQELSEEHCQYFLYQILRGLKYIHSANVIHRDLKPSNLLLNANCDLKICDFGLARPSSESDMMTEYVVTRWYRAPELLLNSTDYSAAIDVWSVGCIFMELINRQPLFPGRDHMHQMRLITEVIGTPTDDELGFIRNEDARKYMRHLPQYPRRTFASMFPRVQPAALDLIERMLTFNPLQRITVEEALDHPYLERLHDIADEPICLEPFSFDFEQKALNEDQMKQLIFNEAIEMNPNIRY

[2] = biological target: OsMPK20-4 (rice (Oryza sativa)); experiment: two-hybrid; lacZ reporter: β-galactosidase activity of liquid cultures of AH109 with ONPG as substrate, absorbance at 420 nm
[3] = biological target: OsMPK20-4 (rice (Oryza sativa)); experiment: two-hybrid; one to one, pGADT7 and pGBKT7 constructs co-transformed in yeast AH109; selected on DDO, interaction checked by growth on QDO (SD-trp-leu-ade-his) at 30°C
[4] = biological target: OsMPK20-4-HA (rice (Oryza sativa)); experiment: co-IP; proteins from co-infiltrated Nicotiana tabacum leaves (48 h); IP with anti-HA antibody and Protein A Sepharose at 4°C, immunoblot with anti-c-Myc
[5] = biological target: OsMPK20-4 tagged with CFP (rice (Oryza sativa)); experiment: FRET or BRET; FRET acceptor bleaching (FRET-AB), CFP and YFP fusions in transiently transformed tobacco leaves, confocal microscope (TCS SP5; Leica)

OsMPK20-2 (rice (Oryza sativa))
binding [1]: no binding

OsMPK20-4 (rice (Oryza sativa))
binding [1]: binds

B1: OsMPK3 (protein, UniProt Q10N20 1-369)
chain: T1 sequence
binding [2]: binds
binding [3]: binds

B2: OsMPK3-MYC (protein, UniProt Q10N20 1-369)
chain: T1 sequence
binding [4]: binds

B3: OsMPK3 tagged with YFP (protein, UniProt Q10N20 1-369)
chain: T1 sequence
binding [5]: binds
